Test system: ovariectomized female mice
Assay: Femoral length and ratio of femoral ash weight to femoral length in ovariectomized female mice
Assay type: in vivo, ICR mice
Details: oral, 4 weeks, n = 11

Compound: C[C@]12CC[C@@H]3c4ccc(O)cc4CC[C@H]3[C@@H]1CC[C@@H]2O [17β-estradiol]
- Femoral length (mean ± SD) (dose 0.23 μmol/kg/day): 16.87 ± 0.34 mm
- Femoral length (mean ± SD) (dose 2.3 μmol/kg/day): 16.72 ± 0.35 mm

Reference: patent publication US20230233577A1, “17Beta-ESTRADIOL/VITAMIN C MOLECULAR COMPLEX, PREPARATION METHOD, AND USE THEREOF” (ZHEJIANG MEDICINE CO., LTD.XINCHANG PHARMACEUTICAL FACTORY, priority 2020, published 2023)
